Results deposited as PubChem BioAssay AID1259308 (NCATS, 2017)
Shown is a random part of about 59,000 reagents. About 1,510 of them (2.6%) count as active. 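Calls use total luciferase alone and ignore viability, so some active siRNAs may act by altering cell number.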 Reagents against one gene are numbered here.

Assay: 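Candidate targets for better recombinant protein yield in mammalian cells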 (primary screen)
Cells: human HEK293 embryonic kidney cells stably expressing firefly luciferase (HEK-CMV-Luc2-Hygro)
Reagents: single siRNA against human genes, 0.8 pmol siRNA per well
Duration: 72 h
Measured: 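Luciferase light (ONE-Glo) measured on one replicate plate set and viability (CellTiter-Glo) on the other, scaled to a negative control siRNA, with robust z-scores and luciferase per cell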
Direction: total luciferase, z-score and total luciferase, % of control: higher = more reporter protein produced; luciferase per cell, z-score: higher = more reporter output per viable cell; viable cells, % of control: higher = more viable cells
Active means: 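Active when the median/MAD z-score for overall luciferase is greater than 3; a gene was taken forward for validation with new siRNAs if at least two of its three siRNAs passed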
Calls: active = raised luciferase; inactive = no rise

| gene | reagent | total luciferase, z-score | total luciferase, % of control | luciferase per cell, z-score | viable cells, % of control | call |
| --- | --- | --- | --- | --- | --- | --- |
| BEND2 | 1 | 0.808 | 98 | 0.786 | 89 | inactive |
| BEND2 | 2 | -0.218 | 77.6 | -0.419 | 96.8 | inactive |
| BEND2 | 3 | -1.09 | 60.1 | -1.64 | 103 | inactive |
| GLYATL1 | 1 | 0.665 | 95.1 | 0.869 | 84.5 | inactive |
| GLYATL1 | 2 | -0.48 | 72.3 | -0.559 | 93.6 | inactive |
| GLYATL1 | 3 | -0.638 | 69.2 | -0.618 | 91 | inactive |
| CMKLR2 | 1 | -1.21 | 57.8 | -1.29 | 90.6 | inactive |
| CMKLR2 | 2 | -0.343 | 75.1 | -0.661 | 99.8 | inactive |
| CMKLR2 | 3 | -0.916 | 63.7 | -1.48 | 105 | inactive |
| WWTR1 | 1 | 1.23 | 106 | 0.897 | 93.8 | inactive |
| WWTR1 | 2 | -0.944 | 63.1 | -0.419 | 78.8 | inactive |
| WWTR1 | 3 | -0.125 | 79.4 | -0.323 | 96.6 | inactive |

A run of entries taken from the entries so far, as a working copy:
| gene | reagent | total luciferase, z-score | total luciferase, % of control | luciferase per cell, z-score | viable cells, % of control | call |
| --- | --- | --- | --- | --- | --- | --- |
| BEND2 | 3 | -1.09 | 60.1 | -1.64 | 103 | inactive |
| GLYATL1 | 1 | 0.665 | 95.1 | 0.869 | 84.5 | inactive |
| GLYATL1 | 2 | -0.48 | 72.3 | -0.559 | 93.6 | inactive |
| GLYATL1 | 3 | -0.638 | 69.2 | -0.618 | 91 | inactive |

The listing continues.
| gene | reagent | total luciferase, z-score | total luciferase, % of control | luciferase per cell, z-score | viable cells, % of control | call |
| --- | --- | --- | --- | --- | --- | --- |
| SEPTIN10 | 1 | -0.0251 | 81.4 | 0.227 | 85.7 | inactive |
| SEPTIN10 | 2 | -0.702 | 67.9 | -0.392 | 84.1 | inactive |
| SEPTIN10 | 3 | 3.22 | 146 | 1.7 | 104 | active |
| ZDHHC5 | 1 | -1.68 | 48.5 | -2.18 | 96.2 | inactive |
| ZDHHC5 | 2 | -1.97 | 42.8 | -2.54 | 93.2 | inactive |
| ZDHHC5 | 3 | 0.45 | 90.8 | 1.06 | 76.9 | inactive |
| MAPRE2 | 1 | 0.313 | 88.1 | 0.102 | 95.9 | inactive |
| MAPRE2 | 2 | -0.192 | 78.1 | -0.477 | 98.9 | inactive |
| MAPRE2 | 3 | 1.32 | 108 | 2.6 | 61 | inactive |
| ABCD4 | 1 | -0.568 | 70.6 | -1.25 | 110 | inactive |
| ABCD4 | 2 | -0.297 | 76 | -1.17 | 116 | inactive |
| ABCD4 | 3 | 1.13 | 104 | 1.5 | 78.6 | inactive |
